{"source": "the supplement of paper PMC4635364", "note": "Where a name gives a salt, the structure may show the parent alone. Some of the results follow. Repeats in this data set agree poorly, so a single value says little.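 Human fetal ventral-midbrain neural progenitor line ReNCell VM, differentiated without mitogens. Images stained for doublecortin (early neurons) or tyrosine hydroxylase (dopaminergic neurons) were scored by blinded raters against untreated wells (0 = no change). Repeats and both raters were averaged, and compounds averaging 2 or higher were picked as hits for retesting.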"}
{"system": "ReNCell VM", "experiment": "neuronal differentiation score (DCX+ cell fraction vs untreated, manual image score) (score (-3 to 3)); higher = more neuronal differentiation", "conditions": "library: LOPAC; 2 uM; 2 weeks"}
{"smiles": "CC(=O)OC(C)C[N+](C)(C)C", "note": "(stereo not drawn) [Acetyl-beta-methylcholine chloride]", "neuronal differentiation score": "inactive: 0"}
{"smiles": "OCc1cc(C(O)CNCCCCCCOCCCCc2ccccc2)ccc1O", "note": "(centres undefined) [Salmeterol xinafoate]", "neuronal differentiation score": "inactive: 0"}
{"smiles": "Nc1nc(OCc2ccccc2)c2nc[nH]c2n1", "note": "[O6-benzylguanine]", "neuronal differentiation score": "inactive: 0"}
{"smiles": "Fc1ccc(C(OCCCc2cnc[nH]2)c2ccc(F)cc2)cc1", "neuronal differentiation score": "inactive: 0"}
{"smiles": "NC1=NCC2c3ccccc3Cc3ccccc3N12", "note": "(centres undefined) [Epinastine hydrochloride]", "neuronal differentiation score": "inactive: 0"}
{"system": "ReNCell VM", "experiment": "neuronal differentiation score (DCX+ cell fraction vs untreated, manual image score) (score (-3 to 3)); higher = more neuronal differentiation", "conditions": "library: Prestwick; 2 uM; 2 weeks"}
{"smiles": "C=C1/C(=C\\C=C2/CCC[C@]3(C)[C@@H]([C@H](C)CCCC(C)C)CC[C@@H]23)C[C@@H](O)C[C@@H]1O", "note": "[Alfacalcidol]", "neuronal differentiation score": "inactive: 0"}
{"smiles": "O=C(O)CCC(=O)c1ccc(-c2ccccc2)cc1", "note": "[Fenbufen]", "neuronal differentiation score": "inactive: 0"}
{"smiles": "CCCN[C@H]1CCc2nc(N)sc2C1", "note": "[Pramipexole]", "neuronal differentiation score": "inactive: 0"}
{"smiles": "Cc1ccnc(NS(=O)(=O)c2ccc(N)cc2)n1", "note": "[Sulfamerazine]", "neuronal differentiation score": "inactive: 0"}
{"smiles": "N=C(N)NS(=O)(=O)c1ccc(N)cc1", "note": "[Sulfaguanidine]", "neuronal differentiation score": "inactive: 0"}
{"smiles": "CC(=O)O[C@]1(C(C)=O)CC[C@H]2[C@@H]3C=C(Cl)C4=CC(=O)CC[C@]4(C)[C@H]3CC[C@@]21C", "note": "[Chlormadinone acetate]", "neuronal differentiation score": "inactive: 0"}
{"smiles": "CCN(CC)CCNC(=O)c1cc(Cl)c(N)cc1OC", "note": "[Metoclopramide monohydrochloride]", "neuronal differentiation score": "inactive: 0"}
{"smiles": "CC1CCc2c(N3CCC(O)CC3)c(F)cc3c(=O)c(C(=O)O)cn1c23", "note": "(centres undefined) [Nadifloxacin]", "neuronal differentiation score": "inactive: 0"}
{"smiles": "O=S(=O)(O)CCS", "note": "[Mesna]", "neuronal differentiation score": "inactive: 0"}
{"smiles": "CCCc1nc2c(C)cc(-c3nc4ccccc4n3C)cc2n1Cc1ccc(-c2ccccc2C(=O)O)cc1", "note": "[Telmisartan]", "neuronal differentiation score": "inactive: 0"}
{"smiles": "CC[C@@H](CO)NCCN[C@@H](CC)CO", "note": "[Ethambutol dihydrochloride]", "neuronal differentiation score": "inactive: 0"}
{"smiles": "O=C(O)c1cccnc1", "note": "[Niacin]", "neuronal differentiation score": "inactive: 0"}
{"smiles": "COc1ccccc1Oc1c(NS(=O)(=O)c2ccc(C(C)(C)C)cc2)nc(-c2ncccn2)nc1OCCO", "note": "[Bosentan]", "neuronal differentiation score": "inactive: 0"}
{"system": "ReNCell VM", "experiment": "neuronal differentiation score (DCX+ cell fraction vs untreated, manual image score) (score (-3 to 3)); higher = more neuronal differentiation", "conditions": "library: Spectrum; 2 uM; 2 weeks"}
{"smiles": "Clc1ccc(COC(Cn2ccnc2)c2ccc(Cl)cc2Cl)cc1", "note": "(centres undefined)", "neuronal differentiation score": "inactive: 0"}
{"smiles": "CC1(O)CCC(C(C)(C)O)CC1", "note": "(centres undefined)", "neuronal differentiation score": "inactive: 0"}
{"smiles": "CC(C)[N+](C)(CCOC(=O)C1c2ccccc2Oc2ccccc21)C(C)C", "neuronal differentiation score": "inactive: 0"}
{"smiles": "O=C(O)C(=O)O.[NH-][C@@H]1CCCC[C@H]1[NH-].[Pt+2]", "neuronal differentiation score": "inactive: 0"}
{"smiles": "CC(C)c1c(O)ccc2c1CC[C@H]1C(C)(C)CCC[C@]21C", "neuronal differentiation score": "inactive: 0"}
{"smiles": "O=C(/C=C/c1ccc(O)cc1)c1ccc(O)cc1O", "neuronal differentiation score": "inactive: 0"}
{"smiles": "Cn1c(=O)c2nc[nH]c2n(C)c1=O", "neuronal differentiation score": "inactive: -1"}
{"smiles": "CN(C)CCN(Cc1ccccc1)c1ccccn1", "neuronal differentiation score": "inactive: 0"}
{"smiles": "COc1ccc(-c2cc(=O)c3c(O)cc(OC)c(OC)c3o2)c(OC)c1", "neuronal differentiation score": "inactive: 0"}
{"smiles": "CC1Cc2ccccc2N1NC(=O)c1ccc(Cl)c(S(N)(=O)=O)c1", "note": "(centres undefined)", "neuronal differentiation score": "inactive: 0"}
{"smiles": "OC[C@H]1O[C@@H](O[C@H]2[C@H](O)[C@@H](O)[C@@H](O)O[C@@H]2CO)[C@H](O)[C@@H](O)[C@@H]1O", "neuronal differentiation score": "inactive: 0"}
{"smiles": "N[C@H]1C(O)O[C@H](CO)[C@@H](O)[C@@H]1O", "note": "(some centres undefined)", "neuronal differentiation score": "inactive: 0"}
{"smiles": "COc1cc(/C=C/C(=O)O)ccc1O", "neuronal differentiation score": "inactive: 0"}
{"smiles": "OC1(c2ccc(Cl)c(C(F)(F)F)c2)CCN(CCCC(c2ccc(F)cc2)c2ccc(F)cc2)CC1", "neuronal differentiation score": "active: 3"}
{"smiles": "COC(=O)C1=C(C)NC(C)=C(C(=O)OCC(C)C)C1c1ccccc1[N+](=O)[O-]", "note": "(centres undefined)", "neuronal differentiation score": "inactive: 0"}
{"smiles": "CCN(CC)CCNC(=O)c1cc(Cl)c(N)cc1OC", "neuronal differentiation score": "inactive: 1"}
